No constants are given. Whether binding was seen depends on the method and setting. In cells and extracts the contact can be indirect. Some binding calls cover weakened binding; strength is not graded here.

Amino acid sequences for entries named in this document (tags omitted). Residues count along the entry.
UniProt O88382: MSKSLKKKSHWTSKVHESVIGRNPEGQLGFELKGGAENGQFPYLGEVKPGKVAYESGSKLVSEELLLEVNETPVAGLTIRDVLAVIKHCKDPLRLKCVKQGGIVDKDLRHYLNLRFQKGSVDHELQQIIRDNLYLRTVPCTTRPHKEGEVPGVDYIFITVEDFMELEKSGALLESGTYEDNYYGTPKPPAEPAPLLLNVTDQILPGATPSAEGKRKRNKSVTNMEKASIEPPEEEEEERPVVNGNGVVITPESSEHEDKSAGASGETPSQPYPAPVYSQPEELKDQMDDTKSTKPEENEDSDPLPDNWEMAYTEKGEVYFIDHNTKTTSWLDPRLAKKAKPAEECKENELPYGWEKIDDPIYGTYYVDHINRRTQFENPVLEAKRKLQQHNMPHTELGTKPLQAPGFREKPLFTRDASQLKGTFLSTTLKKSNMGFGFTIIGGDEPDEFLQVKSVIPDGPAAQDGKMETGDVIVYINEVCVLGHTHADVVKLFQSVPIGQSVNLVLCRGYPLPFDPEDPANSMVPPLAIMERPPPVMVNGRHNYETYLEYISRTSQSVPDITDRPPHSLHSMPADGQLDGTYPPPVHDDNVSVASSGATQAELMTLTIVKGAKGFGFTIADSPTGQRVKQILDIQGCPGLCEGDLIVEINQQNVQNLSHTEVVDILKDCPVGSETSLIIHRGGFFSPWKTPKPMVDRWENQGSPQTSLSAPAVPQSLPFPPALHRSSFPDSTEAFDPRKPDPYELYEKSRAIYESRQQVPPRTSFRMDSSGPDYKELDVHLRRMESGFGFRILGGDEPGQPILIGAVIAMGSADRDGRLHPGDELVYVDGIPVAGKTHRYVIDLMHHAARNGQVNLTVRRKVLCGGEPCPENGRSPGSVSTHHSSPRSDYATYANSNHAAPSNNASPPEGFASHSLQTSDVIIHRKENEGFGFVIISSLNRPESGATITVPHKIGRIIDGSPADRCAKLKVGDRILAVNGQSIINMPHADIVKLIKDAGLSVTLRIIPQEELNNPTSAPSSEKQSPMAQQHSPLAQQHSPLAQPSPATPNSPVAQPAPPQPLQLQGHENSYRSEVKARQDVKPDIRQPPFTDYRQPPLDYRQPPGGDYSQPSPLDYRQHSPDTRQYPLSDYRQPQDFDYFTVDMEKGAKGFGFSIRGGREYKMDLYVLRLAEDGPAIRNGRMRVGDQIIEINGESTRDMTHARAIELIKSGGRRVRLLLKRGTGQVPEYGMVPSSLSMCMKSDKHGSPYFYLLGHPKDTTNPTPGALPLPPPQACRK
UniProt Q8BYM5, residues 35-825: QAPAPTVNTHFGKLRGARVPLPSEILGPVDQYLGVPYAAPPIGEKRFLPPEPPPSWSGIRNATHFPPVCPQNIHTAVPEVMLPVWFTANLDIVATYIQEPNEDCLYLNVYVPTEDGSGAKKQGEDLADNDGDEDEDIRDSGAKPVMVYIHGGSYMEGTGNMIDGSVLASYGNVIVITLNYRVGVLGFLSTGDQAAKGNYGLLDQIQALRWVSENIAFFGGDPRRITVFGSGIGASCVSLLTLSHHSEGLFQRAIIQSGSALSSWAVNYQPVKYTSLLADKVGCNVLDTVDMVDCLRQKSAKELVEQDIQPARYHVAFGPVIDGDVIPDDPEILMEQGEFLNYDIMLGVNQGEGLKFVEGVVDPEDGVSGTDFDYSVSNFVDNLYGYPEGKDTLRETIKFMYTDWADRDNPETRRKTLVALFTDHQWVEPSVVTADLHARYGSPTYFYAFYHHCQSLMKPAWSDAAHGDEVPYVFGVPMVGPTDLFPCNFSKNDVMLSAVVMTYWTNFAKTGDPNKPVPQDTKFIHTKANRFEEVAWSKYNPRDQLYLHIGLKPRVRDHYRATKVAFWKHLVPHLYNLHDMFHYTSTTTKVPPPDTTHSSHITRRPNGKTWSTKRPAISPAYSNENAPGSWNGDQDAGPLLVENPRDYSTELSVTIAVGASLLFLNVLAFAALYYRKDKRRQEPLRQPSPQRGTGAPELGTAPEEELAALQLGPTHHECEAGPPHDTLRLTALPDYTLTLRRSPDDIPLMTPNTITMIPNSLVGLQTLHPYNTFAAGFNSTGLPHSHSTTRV

Test [1] concerns the target myc-tagged MAGI-2 (membrane associated guanylate kinase, WW, and PDZ domain containing 2) (rat) (UniProt O88382). The test is described as follows: co-IP; HEK293T cells co-transfected with two plasmids; lysed with 1% Triton X-100 in PBS with phosphatase inhibitor cocktail 36 h after transfection; antibody (NL3 or myc) 2 h at 4°C, then Protein A beads 2 h; western blot.
Another test addresses HA-tagged neuroligin 3 (UniProt Q8BYM5). The description is as above.

For “HA-tagged neuroligin 3 (from UniProt Q8BYM5 35-825)”, the binding entry in test [1] is reported as “binds”. Regarding “myc-tagged MAGI-2 (membrane associated guanylate kinase, WW, and PDZ domain containing 2) (from UniProt O88382 1-1277)”, the binding entry in the test with HA-tagged neuroligin 3 was “binds”.

These data come from publication PMC6896717.
